Reference: the supplement of paper PMC10849652
The other results are listed elsewhere or left out.

The chains behind the UniProt entries cited, without tags or fusion partners. Where a name states a change or a piece, a line headed by the entry shows the natural chain unless it says otherwise.
UniProt Q92995: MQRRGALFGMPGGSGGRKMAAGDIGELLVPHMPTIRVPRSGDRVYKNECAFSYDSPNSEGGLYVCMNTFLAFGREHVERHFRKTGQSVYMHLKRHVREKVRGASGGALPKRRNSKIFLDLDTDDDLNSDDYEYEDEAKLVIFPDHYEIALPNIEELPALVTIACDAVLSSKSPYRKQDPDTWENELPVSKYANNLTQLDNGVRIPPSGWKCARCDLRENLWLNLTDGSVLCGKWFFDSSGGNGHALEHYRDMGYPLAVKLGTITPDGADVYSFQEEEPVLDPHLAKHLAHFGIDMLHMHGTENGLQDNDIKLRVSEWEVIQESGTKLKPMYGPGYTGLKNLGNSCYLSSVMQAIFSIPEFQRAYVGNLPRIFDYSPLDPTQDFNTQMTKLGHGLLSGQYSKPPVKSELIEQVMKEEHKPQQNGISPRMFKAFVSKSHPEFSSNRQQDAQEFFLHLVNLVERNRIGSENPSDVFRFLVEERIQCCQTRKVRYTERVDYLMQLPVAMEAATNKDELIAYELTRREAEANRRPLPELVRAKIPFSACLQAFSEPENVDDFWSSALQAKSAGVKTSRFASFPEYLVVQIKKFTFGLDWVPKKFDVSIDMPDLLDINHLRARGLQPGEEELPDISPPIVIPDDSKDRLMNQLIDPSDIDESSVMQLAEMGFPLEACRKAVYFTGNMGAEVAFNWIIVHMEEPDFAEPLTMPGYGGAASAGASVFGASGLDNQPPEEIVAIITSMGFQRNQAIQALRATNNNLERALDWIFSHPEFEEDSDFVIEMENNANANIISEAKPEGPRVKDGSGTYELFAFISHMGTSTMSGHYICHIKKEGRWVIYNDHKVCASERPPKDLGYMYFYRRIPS
UniProt P63027, whole entry, looked up: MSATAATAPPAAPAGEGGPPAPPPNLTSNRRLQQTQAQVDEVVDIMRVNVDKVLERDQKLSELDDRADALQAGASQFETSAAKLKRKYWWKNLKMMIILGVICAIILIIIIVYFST
UniProt Q9H1J1: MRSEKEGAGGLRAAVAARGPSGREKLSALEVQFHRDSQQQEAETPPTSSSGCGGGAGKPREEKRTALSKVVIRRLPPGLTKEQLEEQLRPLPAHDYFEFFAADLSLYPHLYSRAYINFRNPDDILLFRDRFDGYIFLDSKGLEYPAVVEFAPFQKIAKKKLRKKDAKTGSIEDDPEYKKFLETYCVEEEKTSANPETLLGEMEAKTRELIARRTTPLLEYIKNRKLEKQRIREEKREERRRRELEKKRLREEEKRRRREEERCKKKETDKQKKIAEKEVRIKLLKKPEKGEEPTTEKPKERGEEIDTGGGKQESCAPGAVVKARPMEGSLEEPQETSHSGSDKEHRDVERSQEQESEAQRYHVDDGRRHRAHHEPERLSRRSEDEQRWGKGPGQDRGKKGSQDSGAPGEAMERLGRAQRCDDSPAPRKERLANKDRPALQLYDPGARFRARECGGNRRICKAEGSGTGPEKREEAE
UniProt Q96JH7: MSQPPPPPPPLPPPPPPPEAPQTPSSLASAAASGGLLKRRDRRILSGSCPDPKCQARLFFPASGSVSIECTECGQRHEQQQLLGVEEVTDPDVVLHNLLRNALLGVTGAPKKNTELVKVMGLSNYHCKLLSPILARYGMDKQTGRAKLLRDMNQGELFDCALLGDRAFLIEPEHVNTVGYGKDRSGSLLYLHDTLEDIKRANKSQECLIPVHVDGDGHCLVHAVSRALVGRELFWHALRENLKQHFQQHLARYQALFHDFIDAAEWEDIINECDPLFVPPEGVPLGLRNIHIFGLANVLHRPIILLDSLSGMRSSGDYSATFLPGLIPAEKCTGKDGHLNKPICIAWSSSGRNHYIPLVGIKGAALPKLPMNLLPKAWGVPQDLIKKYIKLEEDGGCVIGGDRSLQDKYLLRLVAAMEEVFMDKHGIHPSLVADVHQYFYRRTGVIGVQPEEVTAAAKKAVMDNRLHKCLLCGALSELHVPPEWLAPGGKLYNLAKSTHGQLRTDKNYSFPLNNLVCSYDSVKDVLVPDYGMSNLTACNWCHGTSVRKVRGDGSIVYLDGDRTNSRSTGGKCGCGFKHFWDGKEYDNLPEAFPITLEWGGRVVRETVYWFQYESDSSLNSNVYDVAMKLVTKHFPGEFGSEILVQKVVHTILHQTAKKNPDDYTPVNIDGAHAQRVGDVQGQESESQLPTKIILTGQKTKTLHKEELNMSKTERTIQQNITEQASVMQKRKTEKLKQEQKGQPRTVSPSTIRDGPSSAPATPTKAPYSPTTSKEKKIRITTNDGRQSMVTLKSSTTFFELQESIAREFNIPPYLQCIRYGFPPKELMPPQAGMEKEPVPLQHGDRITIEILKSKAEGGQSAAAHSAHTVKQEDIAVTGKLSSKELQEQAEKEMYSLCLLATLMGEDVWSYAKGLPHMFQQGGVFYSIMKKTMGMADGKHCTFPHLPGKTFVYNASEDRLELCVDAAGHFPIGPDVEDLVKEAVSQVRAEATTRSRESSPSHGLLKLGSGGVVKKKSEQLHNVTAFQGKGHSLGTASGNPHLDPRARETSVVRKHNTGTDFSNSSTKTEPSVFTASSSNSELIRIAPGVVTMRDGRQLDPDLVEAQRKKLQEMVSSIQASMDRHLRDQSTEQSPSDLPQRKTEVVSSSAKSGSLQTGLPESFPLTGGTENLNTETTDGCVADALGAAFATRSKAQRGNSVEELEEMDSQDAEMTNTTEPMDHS
UniProt Q9Y3C8: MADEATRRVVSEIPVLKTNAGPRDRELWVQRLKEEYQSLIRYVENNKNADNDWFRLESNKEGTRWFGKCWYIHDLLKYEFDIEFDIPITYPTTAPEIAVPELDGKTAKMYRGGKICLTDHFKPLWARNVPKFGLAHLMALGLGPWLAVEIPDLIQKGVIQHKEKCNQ
UniProt Q9ULK5: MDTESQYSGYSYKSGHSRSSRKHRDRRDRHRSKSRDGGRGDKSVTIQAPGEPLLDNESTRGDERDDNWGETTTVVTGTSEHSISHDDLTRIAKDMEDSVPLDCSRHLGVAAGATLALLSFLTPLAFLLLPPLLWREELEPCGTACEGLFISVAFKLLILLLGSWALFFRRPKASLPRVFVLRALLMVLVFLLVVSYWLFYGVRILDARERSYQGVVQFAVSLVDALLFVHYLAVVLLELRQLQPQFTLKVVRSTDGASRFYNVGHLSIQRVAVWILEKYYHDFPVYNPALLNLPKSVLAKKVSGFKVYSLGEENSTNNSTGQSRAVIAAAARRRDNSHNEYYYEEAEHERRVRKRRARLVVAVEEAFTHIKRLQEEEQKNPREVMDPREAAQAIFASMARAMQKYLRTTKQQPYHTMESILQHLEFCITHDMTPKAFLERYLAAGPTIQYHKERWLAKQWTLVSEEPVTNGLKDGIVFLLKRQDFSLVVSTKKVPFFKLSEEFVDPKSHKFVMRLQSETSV
UniProt Q9BRU9: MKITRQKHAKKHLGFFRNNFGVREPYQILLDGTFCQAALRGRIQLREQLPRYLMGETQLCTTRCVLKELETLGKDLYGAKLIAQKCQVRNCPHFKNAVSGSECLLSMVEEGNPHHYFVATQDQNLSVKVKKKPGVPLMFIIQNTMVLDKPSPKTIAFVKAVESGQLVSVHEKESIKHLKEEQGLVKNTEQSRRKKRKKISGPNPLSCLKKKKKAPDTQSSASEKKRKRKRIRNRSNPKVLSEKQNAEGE
UniProt Q14146: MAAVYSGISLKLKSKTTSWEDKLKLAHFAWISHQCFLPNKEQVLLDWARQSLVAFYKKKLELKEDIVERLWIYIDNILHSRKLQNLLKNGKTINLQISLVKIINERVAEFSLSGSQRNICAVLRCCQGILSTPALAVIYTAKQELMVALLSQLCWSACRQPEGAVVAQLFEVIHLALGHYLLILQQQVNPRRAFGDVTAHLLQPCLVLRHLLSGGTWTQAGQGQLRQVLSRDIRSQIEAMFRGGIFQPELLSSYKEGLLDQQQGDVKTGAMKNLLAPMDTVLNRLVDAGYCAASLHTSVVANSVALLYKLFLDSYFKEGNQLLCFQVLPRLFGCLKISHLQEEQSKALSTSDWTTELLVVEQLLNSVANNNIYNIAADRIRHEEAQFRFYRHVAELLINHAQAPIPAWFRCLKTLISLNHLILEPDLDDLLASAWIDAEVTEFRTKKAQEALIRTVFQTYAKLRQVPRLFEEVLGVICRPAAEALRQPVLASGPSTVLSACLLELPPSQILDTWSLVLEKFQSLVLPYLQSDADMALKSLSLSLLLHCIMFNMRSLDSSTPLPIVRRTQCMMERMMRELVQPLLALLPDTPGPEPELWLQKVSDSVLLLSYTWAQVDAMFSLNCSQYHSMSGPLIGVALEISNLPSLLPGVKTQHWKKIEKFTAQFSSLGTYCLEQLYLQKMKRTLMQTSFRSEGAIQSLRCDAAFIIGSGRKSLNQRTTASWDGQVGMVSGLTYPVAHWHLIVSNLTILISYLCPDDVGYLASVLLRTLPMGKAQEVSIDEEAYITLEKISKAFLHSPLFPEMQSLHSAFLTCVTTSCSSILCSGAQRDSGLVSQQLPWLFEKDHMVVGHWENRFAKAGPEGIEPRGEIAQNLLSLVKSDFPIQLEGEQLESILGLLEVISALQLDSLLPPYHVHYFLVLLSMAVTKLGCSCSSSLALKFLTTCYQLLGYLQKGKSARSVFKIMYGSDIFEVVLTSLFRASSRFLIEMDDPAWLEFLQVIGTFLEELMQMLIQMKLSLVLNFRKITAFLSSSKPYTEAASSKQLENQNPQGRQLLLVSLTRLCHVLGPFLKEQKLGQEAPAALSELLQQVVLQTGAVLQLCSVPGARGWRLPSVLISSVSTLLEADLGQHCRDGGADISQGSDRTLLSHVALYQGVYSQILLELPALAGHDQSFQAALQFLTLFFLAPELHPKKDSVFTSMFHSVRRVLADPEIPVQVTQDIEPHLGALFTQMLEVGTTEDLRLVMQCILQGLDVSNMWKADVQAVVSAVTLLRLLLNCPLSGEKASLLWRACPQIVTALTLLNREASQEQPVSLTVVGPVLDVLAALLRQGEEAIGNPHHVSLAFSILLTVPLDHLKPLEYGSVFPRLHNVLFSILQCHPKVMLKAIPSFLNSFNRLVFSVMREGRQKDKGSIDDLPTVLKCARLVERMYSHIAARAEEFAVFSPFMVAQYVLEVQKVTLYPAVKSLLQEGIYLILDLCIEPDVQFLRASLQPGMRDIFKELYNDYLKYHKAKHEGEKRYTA
UniProt Q9H9J4: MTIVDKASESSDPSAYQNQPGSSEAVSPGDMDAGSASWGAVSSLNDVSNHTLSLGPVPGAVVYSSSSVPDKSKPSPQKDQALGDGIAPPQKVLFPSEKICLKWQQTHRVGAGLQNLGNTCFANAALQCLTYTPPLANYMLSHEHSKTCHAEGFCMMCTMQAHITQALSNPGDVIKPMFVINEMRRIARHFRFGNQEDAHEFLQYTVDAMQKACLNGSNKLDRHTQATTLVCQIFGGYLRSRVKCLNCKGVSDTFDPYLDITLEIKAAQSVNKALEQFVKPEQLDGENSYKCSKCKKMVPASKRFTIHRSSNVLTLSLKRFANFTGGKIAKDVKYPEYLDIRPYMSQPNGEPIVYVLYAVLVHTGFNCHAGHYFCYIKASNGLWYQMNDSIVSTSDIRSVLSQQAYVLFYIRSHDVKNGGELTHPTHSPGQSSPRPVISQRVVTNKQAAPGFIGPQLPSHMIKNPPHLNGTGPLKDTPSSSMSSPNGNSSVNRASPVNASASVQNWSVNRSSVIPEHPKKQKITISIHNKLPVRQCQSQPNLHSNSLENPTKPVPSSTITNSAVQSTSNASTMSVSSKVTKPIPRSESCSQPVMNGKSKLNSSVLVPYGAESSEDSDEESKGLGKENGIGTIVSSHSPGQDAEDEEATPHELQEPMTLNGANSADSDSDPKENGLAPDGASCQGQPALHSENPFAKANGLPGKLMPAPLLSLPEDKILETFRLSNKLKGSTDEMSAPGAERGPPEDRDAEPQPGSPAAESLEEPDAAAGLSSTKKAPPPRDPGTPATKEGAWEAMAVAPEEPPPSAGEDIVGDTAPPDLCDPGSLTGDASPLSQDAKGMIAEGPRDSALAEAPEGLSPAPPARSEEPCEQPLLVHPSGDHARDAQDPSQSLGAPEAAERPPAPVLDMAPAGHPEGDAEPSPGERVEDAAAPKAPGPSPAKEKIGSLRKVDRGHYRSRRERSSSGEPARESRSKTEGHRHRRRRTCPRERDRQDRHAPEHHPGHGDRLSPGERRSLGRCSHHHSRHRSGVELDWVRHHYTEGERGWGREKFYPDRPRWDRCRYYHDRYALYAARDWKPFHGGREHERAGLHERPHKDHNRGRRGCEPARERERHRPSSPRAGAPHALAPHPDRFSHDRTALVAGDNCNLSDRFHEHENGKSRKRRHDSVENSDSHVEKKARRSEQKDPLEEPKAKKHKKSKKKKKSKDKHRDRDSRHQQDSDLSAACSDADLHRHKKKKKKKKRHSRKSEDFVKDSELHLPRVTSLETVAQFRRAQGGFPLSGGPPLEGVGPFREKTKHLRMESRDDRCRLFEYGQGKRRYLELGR
UniProt Q6UW78: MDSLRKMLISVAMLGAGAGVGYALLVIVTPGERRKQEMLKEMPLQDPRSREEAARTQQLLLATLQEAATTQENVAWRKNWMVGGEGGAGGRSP

Tests used:
Assay in all cases: log2 fold change, soluble protein after heating vs DMSO (PISA); higher = thermal stabilisation; K562 lysate, 10 uM; active = over 0.2 and 3.5 SD of the protein, either way, in both replicates (recomputed)
lapatinib = compound: CS(=O)(=O)CCNCc1ccc(-c2ccc3ncnc(Nc4ccc(OCc5cccc(F)c5)c(Cl)c4)c3c2)o1 [lapatinib]
How it was run: (§1)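 Dounce homogenisation of K562 pellets in PBS pH 7.4 with 1 mM MgCl2 produced a crude extract, used at 1 mg/mL protein. Exposure to 10 μM compound lasted 30 min, and aliquots were then heated for 3 min across 48°C-58°C, pooled and brought to 0.5% NP-40 at 4°C. The supernatant after 21,000xg for 90 min was quantified by TMTpro 16plex LC-MS/MS with channel sums equalised. Duplicate values are given as log-two fold change in thermal stability relative to solvent controls.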

pictilisib = compound: CS(=O)(=O)N1CCN(Cc2cc3nc(-c4cccc5[nH]ncc45)nc(N4CCOCC4)c3s2)CC1 [pictilisib]
How it was run: as §1

crizotinib = compound: C[C@@H](Oc1cc(-c2cnn(C3CCNCC3)c2)cnc1N)c1c(Cl)ccc(F)c1Cl [crizotinib]
How it was run: as §1

[1] = compound: C[C@H](C1=CC=C(C=C1)C(=O)NC2=C3C=CNC3=NC=C2)N
How it was run: as §1

duvelisib = compound: C[C@H](Nc1ncnc2nc[nH]c12)c1cc2cccc(Cl)c2c(=O)n1-c1ccccc1 [duvelisib]
How it was run: as §1

gandotinib = compound: Cc1cc(Nc2cc(CN3CCOCC3)c3nc(C)c(Cc4ccc(Cl)cc4F)n3n2)n[nH]1 [gandotinib]
How it was run: as §1

tozasertib = compound: Cc1cc(Nc2cc(N3CCN(C)CC3)nc(Sc3ccc(NC(=O)C4CC4)cc3)n2)n[nH]1 [tozasertib]
How it was run: as §1

doramapimod = compound: Cc1ccc(-n2nc(C(C)(C)C)cc2NC(=O)Nc2ccc(OCCN3CCOCC3)c3ccccc23)cc1 [doramapimod]
How it was run: as §1

bafetinib = compound: Cc1ccc(NC(=O)c2ccc(CN3CC[C@H](N(C)C)C3)c(C(F)(F)F)c2)cc1Nc1nccc(-c2cncnc2)n1 [bafetinib]
How it was run: as §1

[2] = compound: Cc1cccc(CC(=O)N2CCc3c2ccc(-c2cn(C)c4ncnc(N)c24)c3F)n1
How it was run: as §1

Measured: log2 fold change

USP13 (UniProt Q92995)
inactive: lapatinib 0.033 | pictilisib -0.067 | crizotinib 0.013 | [1] -0.064 | duvelisib -0.009 | gandotinib 0.029 | tozasertib -0.031 | doramapimod -0.044 | bafetinib -0.084 | [2] 0.075

VIPAS39 (UniProt Q9H9C1)
inactive: lapatinib -0.038 | pictilisib -0.024 | crizotinib -0.01 | [1] -0.058 | duvelisib -0.027 | gandotinib 0.007 | tozasertib 0.086 | doramapimod 0.075 | bafetinib -0.029 | [2] 0.12

VAMP2 (UniProt P63027)
inactive: lapatinib 0.045 | pictilisib -0.05 | crizotinib 0.105 | [1] 0.062 | duvelisib 0.051 | gandotinib -0.057 | tozasertib 0.074 | doramapimod -0.083 | bafetinib -0.002 | [2] -0.147

ULK1 (UniProt O75385)
inactive: lapatinib 0.006 | crizotinib 0.138 | [1] 0.099 | duvelisib 0.012 | gandotinib -0.134 | tozasertib 0.092 | doramapimod 0.087 | [2] -0.136

VEZT (UniProt F8W8C2)
inactive: lapatinib 0.099 | pictilisib -0.162 | crizotinib 0.153 | [1] -0.011 | gandotinib -0.035 | tozasertib -0.052 | doramapimod -0.106 | bafetinib -0.082 | [2] -0.049

UPF3A (UniProt Q9H1J1)
inactive: lapatinib -0.017 | pictilisib -0.086 | crizotinib 0.027 | [1] -0.04 | gandotinib 0.054 | tozasertib -0.055 | doramapimod -0.027 | bafetinib 0.029 | [2] 0.204

USP5 (UniProt F5H571)
inactive: lapatinib -0.156 | pictilisib -0.237 | bafetinib -0.221

UPF1 (UniProt Q92900)
inactive: lapatinib 0.006 | pictilisib -0.02 | crizotinib 0.03 | [1] 0.008 | duvelisib 0.009 | gandotinib 0.008 | tozasertib -0.036 | doramapimod 0.02 | bafetinib -0.001 | [2] -0.017

UTP4 (UniProt Q969X6)
inactive: lapatinib 0.03 | pictilisib 0.028 | crizotinib 0.046 | [1] 0.007 | duvelisib 0.003 | gandotinib -0.033 | tozasertib 0.039 | doramapimod -0.054 | bafetinib 0.027 | [2] 0.003

USP38 (UniProt Q8NB14)
inactive: lapatinib -0.062 | pictilisib -0.031 | crizotinib -0.068 | [1] 0.004 | duvelisib 0.011 | gandotinib -0.125 | tozasertib 0.036 | doramapimod -0.024 | bafetinib -0.269 | [2] 0.019

USP4 (UniProt Q13107)
inactive: lapatinib 0.026 | pictilisib 0.052 | crizotinib -0.067 | [1] 0.036 | duvelisib -0.062 | gandotinib -0.07 | tozasertib -0.042 | doramapimod 0.038 | bafetinib -0.085 | [2] 0.021

URM1 isoform 2 (UniProt Q9BTM9)
inactive: lapatinib 0.023 | pictilisib 0.166 | [1] 0.181 | duvelisib -0.013 | gandotinib -0.03 | tozasertib 0.158 | bafetinib 0.208 | [2] -0.037

USP7 (UniProt H3BND8)
inactive: lapatinib -0.006 | pictilisib 0.427 | bafetinib -0.421

VIM (UniProt P08670)
inactive: lapatinib 0.023 | pictilisib -0.01 | crizotinib 0.038 | [1] 0.027 | duvelisib -0.051 | gandotinib -0.054 | tozasertib 0.054 | doramapimod 0.02 | bafetinib -0.037 | [2] 0.004

VCPIP1 (UniProt Q96JH7)
inactive: lapatinib -0.061 | pictilisib -0.053 | crizotinib -0.052 | [1] -0.059 | duvelisib -0.002 | gandotinib -0.038 | tozasertib -0.028 | doramapimod 0.025 | bafetinib -0.043 | [2] 0.1

UFC1 (UniProt Q9Y3C8)
inactive: lapatinib -0.041 | pictilisib -0.012 | crizotinib 0.056 | [1] 0.088 | duvelisib 0.008 | gandotinib -0.019 | tozasertib -0.008 | doramapimod -0.041 | bafetinib 0.095 | [2] -0.057

URB1 (UniProt O60287)
inactive: lapatinib 0.077 | crizotinib -0.18 | [1] -0.238 | duvelisib 0.018 | gandotinib 0.415 | tozasertib 0.104 | doramapimod 0.126 | [2] 0.281

VANGL2 (UniProt Q9ULK5)
inactive: lapatinib -0.071 | pictilisib -0.063 | crizotinib -0.362 | [1] 0.024 | duvelisib 0.1 | gandotinib 0.095 | doramapimod 0.016 | bafetinib -0.139 | [2] 0.054

USP46 (UniProt P62068)
inactive: lapatinib -0.198 | pictilisib -0.18 | crizotinib -0.024 | doramapimod 0.009 | bafetinib -0.147

UPRT (UniProt Q96BW1)
inactive: lapatinib -0.133 | pictilisib -0.033 | crizotinib -0.029 | [1] -0.016 | duvelisib -0.013 | gandotinib -0.035 | tozasertib -0.019 | doramapimod 0.044 | bafetinib 0.014 | [2] -0.016

USP24 (UniProt Q9UPU5)
inactive: lapatinib -0.019 | pictilisib -0.032 | crizotinib -0.044 | [1] 0.018 | duvelisib -0.009 | gandotinib -0.11 | tozasertib 0.005 | doramapimod 0.017 | bafetinib -0.03 | [2] 0.015

UTP14A (UniProt Q9BVJ6)
inactive: lapatinib 0.004 | pictilisib 0.053 | crizotinib -0.026 | [1] -0.015 | duvelisib 0.023 | gandotinib 0.029 | tozasertib -0.009 | doramapimod 0.053 | bafetinib 0.004 | [2] 0.025

USP32 (UniProt Q8NFA0)
inactive: lapatinib -0.032 | pictilisib -0.06 | crizotinib -0.079 | [1] -0.036 | duvelisib 0.042 | gandotinib -0.07 | tozasertib -0.019 | doramapimod -0.046 | bafetinib 0.067 | [2] 0.085

UTP20 (UniProt O75691)
inactive: lapatinib -0.041 | pictilisib -0.095 | crizotinib -0.077 | [1] 0.16 | duvelisib -0.056 | gandotinib -0.184 | tozasertib 0.11 | doramapimod -0.007 | bafetinib -0.061 | [2] 0.052

USF3 (UniProt Q68DE3)
inactive: lapatinib -0.058 | pictilisib -0.058 | tozasertib 0.146 | bafetinib -0.358

UTP23 (UniProt Q9BRU9)
inactive: lapatinib -0.041 | pictilisib -0.052 | crizotinib 0.002 | [1] 0.02 | duvelisib -0.025 | gandotinib -0.09 | doramapimod 0.031 | bafetinib 0.083 | [2] 0.032

VARS (UniProt P26640)
inactive: lapatinib -0.017 | pictilisib -0.027 | crizotinib -0.068 | [1] -0.004 | duvelisib 0.002 | gandotinib -0.092 | tozasertib -0.021 | doramapimod 0.022 | bafetinib -0.012 | [2] 0.029

URB2 (UniProt Q14146)
inactive: lapatinib -0.137 | crizotinib -0.052 | [1] 0.127 | duvelisib 0.028 | gandotinib -0.136 | tozasertib -0.137 | doramapimod -0.077 | [2] -0.086

USP9X (UniProt Q93008)
inactive: lapatinib -0.031 | pictilisib -0.027 | crizotinib -0.058 | [1] -0.015 | duvelisib -0.017 | gandotinib -0.127 | tozasertib 0.011 | doramapimod 0.004 | bafetinib -0.034 | [2] 0.027

USB1 (UniProt Q9BQ65)
inactive: lapatinib 0.092 | crizotinib -0.05 | [1] 0.28 | duvelisib -0.02 | gandotinib -0.292 | tozasertib 0.056 | doramapimod 0.195 | [2] -0.014

USP5 isoform 2 (UniProt P45974)
inactive: lapatinib 0.011 | pictilisib 0.012 | crizotinib -0.002 | [1] -0.012 | duvelisib 0.003 | gandotinib 0.019 | tozasertib 0.018 | doramapimod 0.015 | bafetinib -0.004 | [2] 0.014

URI1 (UniProt O94763)
inactive: lapatinib -0.001 | pictilisib 0.01 | crizotinib 0.006 | [1] 0.02 | duvelisib -0.005 | gandotinib 0.018 | tozasertib 0.075 | doramapimod -0.018 | bafetinib -0.045 | [2] -0.012

Quoted from the entries so far (two entries):
USP9X (UniProt Q93008)
inactive: lapatinib -0.031 | pictilisib -0.027 | crizotinib -0.058 | [1] -0.015 | duvelisib -0.017 | gandotinib -0.127 | tozasertib 0.011 | doramapimod 0.004 | bafetinib -0.034 | [2] 0.027

USB1 (UniProt Q9BQ65)
inactive: lapatinib 0.092 | crizotinib -0.05 | [1] 0.28 | duvelisib -0.02 | gandotinib -0.292 | tozasertib 0.056 | doramapimod 0.195 | [2] -0.014

Further records

USP42 (UniProt Q9H9J4)
inactive: lapatinib -0.1 | pictilisib -0.003 | crizotinib 0.018 | tozasertib 0.148 | doramapimod 0.01 | bafetinib 0.105

UQCC3 (UniProt Q6UW78)
inactive: lapatinib 0.22 | pictilisib -0.046 | [1] 0.356 | duvelisib 0.029 | gandotinib 0.137 | tozasertib 0.149 | bafetinib -0.129 | [2] 0.036
